According to the supplement of paper PMC8975748:
Counter-ions that a name gives are not always drawn. ± gives the standard deviation of the averaged measurements. The list shows a part of the results. Values are raw readings; no control value is given beside them.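 A single yeast strain with four plasmids, each encoding a fluorescent protein and an amino-acid or uracil biosynthesis gene, seeds the community. Stochastic plasmid loss yields mixed prototroph and auxotroph subpopulations. Fixed cells were counted via automated confocal fluorescence imaging; DMSO-treated wells were the vehicle reference.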

Tested on: Saccharomyces cerevisiae BY4741 SeMeCo community
Experiment: imaged cell count per well (cells); higher = more cells
Conditions: 10 µM; 24 h; SM minimal medium
Procedure: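 Same SeMeCo high-content imaging drug screen: Selleck FDA-approved drugs at 10 µM, 24 h in SM medium, 384-well plates, 3 replicates.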

| Structure (SMILES) | imaged cell count per well |
| --- | --- |
| NC(=O)CN1CCCC1=O [Piracetam] | 19800 ± 2000 |
| CC(C)=CCOc1c2occc2cc2ccc(=O)oc12 [Imperatorin] | 16300 ± 3800 |
| CN1[C@@H]2C[C@@H](OC(=O)[C@H](CO)c3ccccc3)C[C@H]1[C@@H]1O[C@@H]12 [Scopolamine HBr trihydrate] | 29700 ± 3000 |
| C#C[C@]1(O)C=C[C@H]2[C@@H]3CCC4=CC(=O)CC[C@@H]4[C@H]3CC[C@@]21CC [Gestodene] | 23200 ± 2000 |
| O=[N+]([O-])C(Br)(CO)CO [Bronopol] | 23400 ± 9600 |
| CN(C)C(=O)Oc1cccc([N+](C)(C)C)c1 [Neostigmine Bromide] | 28200 ± 2700 |
| CCC1=C[C@H]2CN3CCc4c([nH]c5ccccc45)[C@](C(=O)OC)(C2)[C@H]13 [Catharanthine] | 22800 ± 4700 |
| CCCCCCCCCCCCCCCC[n+]1ccccc1 [Cetylpyridinium Chloride] | 1450 ± 930 |
| COc1ccc2c3c([nH]c2c1)C(C)=NCC3 [Harmaline] | 30100 ± 8400 |
| N#Cc1nn(-c2c(Cl)cc(C(F)(F)F)cc2Cl)c(N)c1[S+]([O-])C(F)(F)F (stereo not given) [Fipronil] | 25000 ± 7600 |
| NCCc1c[nH]c2ccc(O)cc12 [Serotonin HCl] | 26300 ± 10000 |
| O=c1cccc2n1C[C@@H]1CNC[C@H]2C1 [Cytisine] | 20100 ± 5600 |
| CC1(C)S[C@@H]2[C@H](N)C(=O)N2[C@H]1C(=O)O [6-Aminopenicillanic acid] | 29200 ± 5200 |
| CCN(CC)CCOC(=O)C(O)(c1ccccc1)c1ccccc1 [Benactyzine hydrochloride] | 18000 ± 10000 |
| Oc1cc(Cl)ccc1Oc1ccc(Cl)cc1Cl [Triclosan] | 12700 ± 4900 |
| C=C[C@H]1CN2CC[C@H]1C[C@H]2[C@H](O)c1ccnc2ccccc12 [Cinchonidine] | 20800 ± 4200 |
| Nc1ccncc1 [4-Aminopyridine] | 25600 ± 3700 |
| CN1[C@@H]2CC[C@H]1C[C@@H](OC(=O)C(CO)c1ccccc1)C2 (stereo not given in full) [Atropine sulfate monohydrate] | 25200 ± 6200 |
| CN1c2ccccc2C(NCCCCCCC(=O)O)c2ccc(Cl)cc2S1(=O)=O (stereo not given) [Tianeptine sodium] | 19900 ± 1600 |
| C[C@@H]1[C@H](O)[C@@H](C)/C=C/C=C/CC/C=C/C=C/C=C/C=C/[C@H](O[C@H]2O[C@@H](C)[C@H](O)[C@@H](N)[C@H]2O)C[C@@H]2O[C@](O)(C[C@@H](O)[C@H](O)CC[C@@H](O)C[C@@H](O)C[C@@H](O)CC(=O)O[C@H]1C)C[C@H](O)[C@H]2C(=O)O [Nystatin (Fungicidin)] | 3040 ± 100 |

Three entries out of the list, sorted by molar mass, low to high:

| Structure (SMILES) | imaged cell count per well |
| --- | --- |
| Nc1ccncc1 [4-Aminopyridine] | 25600 ± 3700 |
| CCCCCCCCCCCCCCCC[n+]1ccccc1 [Cetylpyridinium Chloride] | 1450 ± 930 |
| N#Cc1nn(-c2c(Cl)cc(C(F)(F)F)cc2Cl)c(N)c1[S+]([O-])C(F)(F)F (stereo not given) [Fipronil] | 25000 ± 7600 |

Later entries:

| Structure (SMILES) | imaged cell count per well |
| --- | --- |
| O=C(O[C@H]1C[C@H]2CC[C@@H](C1)[N+]21CCCC1)C(O)(c1ccccc1)c1ccccc1 [Trospium chloride] | 21200 ± 2400 |
| C[C@@H]1O[C@@H](O[C@H]2C[C@@H](O)[C@]3(CO)[C@H]4[C@H](O)C[C@]5(C)[C@@H](C6=CC(=O)OC6)CC[C@]5(O)[C@@H]4CC[C@]3(O)C2)[C@H](O)[C@H](O)[C@H]1O [Ouabain] | 29500 ± 7400 |
| CN1[C@@H]2CC[C@H]1C[C@@H](OC(=O)[C@H](CO)c1ccccc1)C2 [Hyoscyamine] | 23000 ± 6900 |
| [O-][n+]1ccccc1[S-].[O-][n+]1ccccc1[S-].[Zn+2] [Zinc Pyrithione] | 845 ± 130 |
| CCN(C)C(=O)Oc1cccc([C@H](C)N(C)C)c1 [Rivastigmine Tartrate] | 23300 ± 5500 |
| Oc1cccc2cccnc12 [8-Hydroxyquinoline] | 22300 ± 1700 |
| COc1ccc2c(c1)[C@]13CCCC[C@@H]1[C@H](C2)N(C)CC3 [Dextromethorphan hydrobromide hydrate] | 18600 ± 13000 |
| CCN1C[C@]2(OC(=O)c3ccccc3NC(C)=O)CC[C@H](OC)[C@@]34[C@@H]2C[C@@H]([C@@H]13)[C@@]1(O)C[C@H](OC)[C@H]2C[C@@H]4[C@]1(O)[C@H]2OC [Lappaconitine] | 27000 ± 3200 |
| CCOC(=O)Nc1ccc(NCc2ccc(F)cc2)cc1N [Retigabine] | 22000 ± 2500 |
| CC(C)N(CCC(C(N)=O)(c1ccccc1)c1ccccn1)C(C)C (stereo not given) [Disopyramide] | 25500 ± 770 |
| COC(=O)C1=CCCN(C)C1 [Arecoline HBr] | 21300 ± 4800 |
| CN[C@@H]1[C@@H](O)[C@@H](O[C@@H]2[C@@H](O)[C@H](O[C@H]3O[C@H](CN)CC[C@H]3N)[C@@H](N)C[C@H]2N)OC[C@]1(C)O.CN[C@@H]1[C@@H](O)[C@@H](O[C@@H]2[C@@H](O)[C@H](O[C@H]3O[C@H]([C@@H](C)N)CC[C@H]3N)[C@@H](N)C[C@H]2N)OC[C@]1(C)O.CN[C@@H]1[C@@H](O)[C@@H](O[C@@H]2[C@@H](O)[C@H](O[C@H]3O[C@H]([C@@H](C)NC)CC[C@H]3N)[C@@H](N)C[C@H]2N)OC[C@]1(C)O [Gentamicin Sulfate] | 21400 ± 6500 |
| CC(=O)c1c(O)cc(C)oc1=O [Sodium dehydroacetate] | 19000 ± 820 |
| N[C@@H]1C[C@H]1c1ccccc1 [Tranylcypromine (2-PCPA) HCl] | 25000 ± 9600 |
| CN1C(=O)COc2c(C(=O)NC3CN4CCC3CC4)cc(Cl)cc21 (stereo not given) [Azasetron HCl] | 22600 ± 5700 |
| C[CH2][Hg][S]c1ccccc1C(=O)[O-].[Na+] [Thimerosal] | 548 ± 110 |
| Cc1cc(C(C#N)c2ccc(Cl)cc2)c(Cl)cc1NC(=O)c1cc(I)cc(I)c1O (stereo not given) [Closantel Sodium] | 34000 ± 6200 |
| C=CCN1C[C@H](C(=O)N(CCCN(C)C)C(=O)NCC)C[C@@H]2c3cccc4[nH]cc(c34)C[C@H]21 [Cabergoline] | 25500 ± 2100 |
| CC[C@H]1[C@@H]2C[C@H]3[C@@H]4N(C)c5ccccc5[C@]45C[C@@H]([C@@H]2[C@H]5O)N3[C@@H]1O [Ajmaline] | 30400 ± 1400 |
| C=CC[C@]1(O)CC[C@H]2[C@@H]3CCC4=CC(=O)CCC4=C3C=C[C@@]21C [Altrenogest] | 25400 ± 3800 |
